Measurements from “University of Dundee, Small-Polar-MMV Screening Library” (2021), ChEMBL document CHEMBL3988442.

The chains behind the UniProt entries cited, without tags or fusion partners. Residues count along the entry.
UniProt P9WPC5, whole entry: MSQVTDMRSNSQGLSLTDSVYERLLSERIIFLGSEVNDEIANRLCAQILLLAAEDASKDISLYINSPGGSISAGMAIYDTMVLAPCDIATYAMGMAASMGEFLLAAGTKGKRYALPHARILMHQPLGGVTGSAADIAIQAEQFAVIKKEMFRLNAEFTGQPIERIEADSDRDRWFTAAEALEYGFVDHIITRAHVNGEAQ
UniProt P9WPC3, whole entry partner: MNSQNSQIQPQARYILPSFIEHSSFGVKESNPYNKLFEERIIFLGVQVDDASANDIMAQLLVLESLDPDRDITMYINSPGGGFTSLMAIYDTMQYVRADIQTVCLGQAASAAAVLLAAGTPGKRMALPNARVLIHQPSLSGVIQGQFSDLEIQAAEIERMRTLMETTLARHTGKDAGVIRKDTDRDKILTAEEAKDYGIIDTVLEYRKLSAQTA
UniProt P9WNZ1, whole entry: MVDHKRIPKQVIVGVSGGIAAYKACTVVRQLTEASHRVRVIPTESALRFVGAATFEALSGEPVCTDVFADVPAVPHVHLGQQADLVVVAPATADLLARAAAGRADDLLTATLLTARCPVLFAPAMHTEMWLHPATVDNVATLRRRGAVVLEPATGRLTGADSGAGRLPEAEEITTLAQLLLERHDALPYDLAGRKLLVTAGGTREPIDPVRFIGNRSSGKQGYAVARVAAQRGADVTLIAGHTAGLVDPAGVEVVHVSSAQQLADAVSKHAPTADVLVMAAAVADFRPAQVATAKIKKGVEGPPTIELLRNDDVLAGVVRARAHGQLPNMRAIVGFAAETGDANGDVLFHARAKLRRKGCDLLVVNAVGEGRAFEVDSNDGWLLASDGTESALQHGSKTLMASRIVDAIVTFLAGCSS
UniProt Q8IDJ8, 1-583: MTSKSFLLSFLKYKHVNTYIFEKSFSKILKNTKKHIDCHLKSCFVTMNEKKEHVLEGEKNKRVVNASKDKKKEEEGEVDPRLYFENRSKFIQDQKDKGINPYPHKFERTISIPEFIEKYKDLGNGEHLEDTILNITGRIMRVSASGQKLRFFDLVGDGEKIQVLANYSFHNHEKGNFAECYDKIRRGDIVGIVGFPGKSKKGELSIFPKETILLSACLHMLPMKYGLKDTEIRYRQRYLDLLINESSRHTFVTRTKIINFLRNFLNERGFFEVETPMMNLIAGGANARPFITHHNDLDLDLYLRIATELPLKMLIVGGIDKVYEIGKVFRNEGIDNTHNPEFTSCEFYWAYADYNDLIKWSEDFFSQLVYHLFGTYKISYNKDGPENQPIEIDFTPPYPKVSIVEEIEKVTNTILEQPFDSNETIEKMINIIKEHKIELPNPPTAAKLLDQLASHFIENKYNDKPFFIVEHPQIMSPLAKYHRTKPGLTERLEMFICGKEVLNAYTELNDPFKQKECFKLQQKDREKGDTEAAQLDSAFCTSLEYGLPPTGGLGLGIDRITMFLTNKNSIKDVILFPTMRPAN
UniProt Q4DA54, 1-478: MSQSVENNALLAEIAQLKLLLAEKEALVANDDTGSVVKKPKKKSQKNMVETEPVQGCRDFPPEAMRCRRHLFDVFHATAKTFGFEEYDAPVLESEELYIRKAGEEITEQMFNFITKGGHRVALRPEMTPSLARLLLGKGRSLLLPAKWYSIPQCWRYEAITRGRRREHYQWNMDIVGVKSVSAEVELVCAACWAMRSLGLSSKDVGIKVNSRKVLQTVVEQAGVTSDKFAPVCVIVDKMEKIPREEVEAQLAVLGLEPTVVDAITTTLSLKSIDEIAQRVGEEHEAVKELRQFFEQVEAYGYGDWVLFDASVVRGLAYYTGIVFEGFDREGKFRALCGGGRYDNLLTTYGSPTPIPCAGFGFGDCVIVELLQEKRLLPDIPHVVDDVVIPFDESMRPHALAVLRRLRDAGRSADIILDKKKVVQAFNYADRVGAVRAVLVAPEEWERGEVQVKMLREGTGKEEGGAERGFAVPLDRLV
UniProt I6X8D2, whole entry: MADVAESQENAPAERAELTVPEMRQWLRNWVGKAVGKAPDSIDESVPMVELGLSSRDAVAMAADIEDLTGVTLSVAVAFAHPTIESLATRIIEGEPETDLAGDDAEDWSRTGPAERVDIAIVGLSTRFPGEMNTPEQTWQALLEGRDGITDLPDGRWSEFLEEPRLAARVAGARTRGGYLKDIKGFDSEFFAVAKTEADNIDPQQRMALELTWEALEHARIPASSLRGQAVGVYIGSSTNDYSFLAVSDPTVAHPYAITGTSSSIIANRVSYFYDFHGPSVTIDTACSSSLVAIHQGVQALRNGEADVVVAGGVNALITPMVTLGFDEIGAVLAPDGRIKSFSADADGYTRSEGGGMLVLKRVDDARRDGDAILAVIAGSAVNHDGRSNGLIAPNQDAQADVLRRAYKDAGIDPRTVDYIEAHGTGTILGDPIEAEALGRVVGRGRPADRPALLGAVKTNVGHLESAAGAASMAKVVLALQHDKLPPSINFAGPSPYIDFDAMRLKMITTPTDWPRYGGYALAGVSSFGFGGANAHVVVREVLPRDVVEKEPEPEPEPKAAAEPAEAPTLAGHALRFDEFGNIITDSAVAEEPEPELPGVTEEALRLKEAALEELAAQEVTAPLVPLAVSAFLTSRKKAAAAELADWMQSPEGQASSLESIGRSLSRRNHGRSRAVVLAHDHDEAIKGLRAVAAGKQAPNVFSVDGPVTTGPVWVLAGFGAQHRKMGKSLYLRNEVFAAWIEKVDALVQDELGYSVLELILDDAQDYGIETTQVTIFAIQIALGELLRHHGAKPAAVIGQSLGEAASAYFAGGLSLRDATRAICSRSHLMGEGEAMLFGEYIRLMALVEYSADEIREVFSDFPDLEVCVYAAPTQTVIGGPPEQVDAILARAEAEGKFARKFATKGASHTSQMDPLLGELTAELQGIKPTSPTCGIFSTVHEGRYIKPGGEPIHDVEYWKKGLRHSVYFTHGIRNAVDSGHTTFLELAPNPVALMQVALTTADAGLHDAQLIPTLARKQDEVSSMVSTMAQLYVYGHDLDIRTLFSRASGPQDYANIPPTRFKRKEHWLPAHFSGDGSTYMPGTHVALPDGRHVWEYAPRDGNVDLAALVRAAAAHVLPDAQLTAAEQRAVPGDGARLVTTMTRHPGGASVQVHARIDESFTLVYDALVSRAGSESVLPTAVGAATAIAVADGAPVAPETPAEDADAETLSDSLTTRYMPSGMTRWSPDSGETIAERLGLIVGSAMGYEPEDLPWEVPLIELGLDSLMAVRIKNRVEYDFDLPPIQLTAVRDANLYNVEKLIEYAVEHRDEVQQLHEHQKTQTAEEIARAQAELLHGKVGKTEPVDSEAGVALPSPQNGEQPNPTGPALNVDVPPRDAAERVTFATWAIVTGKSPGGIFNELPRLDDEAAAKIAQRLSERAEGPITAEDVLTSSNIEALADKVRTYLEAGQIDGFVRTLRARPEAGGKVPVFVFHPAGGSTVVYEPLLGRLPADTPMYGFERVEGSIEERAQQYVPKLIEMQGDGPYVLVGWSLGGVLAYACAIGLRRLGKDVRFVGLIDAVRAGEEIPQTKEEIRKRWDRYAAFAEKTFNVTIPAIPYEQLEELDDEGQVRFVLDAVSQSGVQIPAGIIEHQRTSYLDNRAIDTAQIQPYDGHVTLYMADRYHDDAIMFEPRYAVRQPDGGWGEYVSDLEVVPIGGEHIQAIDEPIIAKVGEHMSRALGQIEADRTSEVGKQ

ClpP1P2: 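Protease assay of ClpP1P2, read by the AMC dye that it sets free. Target: ClpP1P2, Mycobacterium tuberculosis (UniProt P9WPC5 and UniProt P9WPC3). Tested at 50 µM. Higher reads as stronger inhibition, judged from the few compounds that gave an IC50. Most other retested compounds had strongly negative values. Size under these conditions: about 69,000 compounds, about 10 of them at 50% or above in at least one test.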
CoaBC: 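Enzyme assay of CoaBC with a phosphate dye (Biomol Green) read at 650 nm. Target: Coenzyme A biosynthesis protein CoaBC, Mycobacterium tuberculosis (UniProt P9WNZ1). Tested at 30 µM. Higher reads as stronger inhibition, judged from the few compounds that gave an IC50. Most strong results did not repeat in a second test. Size under these conditions: about 67,000 compounds, about 40 of them at 50% or above in at least one test.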
PfKRS1: 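Enzyme assay of the cytosolic lysyl-tRNA synthetase in 384-well plates, read by luminescence. Target: Lysine-tRNA ligase, Plasmodium falciparum 3D7 (UniProt Q8IDJ8). Concentration: 30 µM. Direction is inferred from only a few compounds that gave an IC50; most scored high, so higher reads as stronger inhibition. Size under these conditions: about 69,000 compounds, about 49 of them at 50% or above in at least one test.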
TcHisRS: 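Enzyme assay of histidyl-tRNA synthetase; the read-out is not stated. Target: Histidine-tRNA ligase, Trypanosoma cruzi CL Brener (UniProt Q4DA54). Concentration: 30 µM. The record gives no direction; compounds that gave an IC50 in retests scored well above the rest, so higher reads as stronger inhibition. About 69,000 compounds were tested under these conditions; 0.045% (about 31) showed 50% or more at least once.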
Pks13 thioesterase: 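Enzyme assay of the thioesterase domain of polyketide synthase 13; the read-out is not stated. Target: Polyketide synthase Pks13, Mycobacterium tuberculosis (UniProt I6X8D2). Tested at 30 µM. Higher reads as stronger inhibition (inferred from which compounds were picked for retests). Size under these conditions: about 67,000 compounds, about 300 of them at 50% or above in at least one test.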

Each number is a percent effect as filed. The controls that fix the scale are not given in the record; negative values are as filed. This is an unselected part of the compounds tested.

With O=C(CCOc1cccc(F)c1)N1CCCC(n2cccn2)C1 (centres unmarked) the screen gave ClpP1P2: -15.16%; CoaBC: -13.67%; PfKRS1: 0.7503%; TcHisRS: 4.274%; Pks13 thioesterase: -19.6%.
With O=C(CN1CC(c2nc(C3CC3)no2)C1)NCC1CCCO1 (centres unmarked) the screen gave ClpP1P2: 3.217%; CoaBC: 2.748%; PfKRS1: -0.1698%; TcHisRS: 8.247%; Pks13 thioesterase: -1.322%.
With Cc1cnn(CC2CCCN2Cc2noc(C)n2)c1 (centres unmarked) the screen gave ClpP1P2: 15.44%; CoaBC: 7.506%; PfKRS1: 4.581%; TcHisRS: 0%; Pks13 thioesterase: -18.6%.
With O=C(NC[C@H]1OC[C@@H]2CCN(Cc3ccco3)C[C@@H]21)c1ccsc1 the screen gave ClpP1P2: 0.002579%; CoaBC: 5.376%; PfKRS1: 0.8575%; TcHisRS: -2.479%; Pks13 thioesterase: -17.09%.
With Cc1nnc(NCC2(c3ccccc3)CC2)c(C#N)c1C the screen gave ClpP1P2: -7.107%; CoaBC: -0.2132%; PfKRS1: 0.4394%; TcHisRS: 5%; Pks13 thioesterase: -21.28%.
With Cc1cnn(CC(C)NCc2ccc(OCc3noc(C)n3)cc2)c1 (centres unmarked) the screen gave ClpP1P2: 19.52%; CoaBC: 3.435%; PfKRS1: 5.254%; TcHisRS: 6.197%.
With COCc1cncc2c1CCN(Cc1cccnc1)C2 the screen gave ClpP1P2: -2.175%; CoaBC: 3.294%; PfKRS1: 0.231%; TcHisRS: 5.288%; Pks13 thioesterase: -15.3%.
With COc1ccccc1CN(C)C(=O)C[S+]([O-])Cc1cc(C)on1 (centres unmarked) the screen gave ClpP1P2: 4.135%; CoaBC: -0.8917%; PfKRS1: 0.7604%; TcHisRS: 3.867%; Pks13 thioesterase: -40.99%.
With CCc1ccc(CN2CCCC(c3nn(C)c(=O)n3CC)C2)nc1 (centres unmarked) the screen gave ClpP1P2: 2.871%; CoaBC: 5.15%; PfKRS1: 9.199%; TcHisRS: 0%; Pks13 thioesterase: -17.48%.
With Cc1nc(CNC(=O)Nc2cc(C(F)(F)F)c[nH]c2=O)cs1 the screen gave ClpP1P2: -22.78%; CoaBC: 4.082%; PfKRS1: 5.814%; TcHisRS: 4.911%; Pks13 thioesterase: -2.769%.
With CCNc1ncc(C(=O)Nc2nnc(N3CCCCC3)[nH]2)s1 the screen gave ClpP1P2: -4.874%; CoaBC: 10.02%; PfKRS1: 0.6852%; TcHisRS: 9.836%; Pks13 thioesterase: -26.78%.
With O=C(c1ccsc1)N1C[C@H]2CN(Cc3cccnc3)C(=O)[C@H]2C1 the screen gave ClpP1P2: 0.7048%; CoaBC: 2.28%; PfKRS1: 4.637%; TcHisRS: 0%; Pks13 thioesterase: -31.29%.
With CN(CCO)C[C@@H]1CN(C(=O)Cc2ccc3ccccc3c2)C[C@@H]1CO the screen gave ClpP1P2: -1.013%; CoaBC: 2.302%; PfKRS1: -0.9626%; TcHisRS: 6.061%; Pks13 thioesterase: -4.567%.
With CC(C)COc1cncc(NCCc2nnc3ccccn23)n1 the screen gave ClpP1P2: -6.985%; CoaBC: 8.351%; PfKRS1: 2.558%; TcHisRS: 4.545%; Pks13 thioesterase: -0.01605%.
With CCc1ccc(C(=O)N2CCC(Nc3ccc(C)nn3)CC2)o1 the screen gave ClpP1P2: -47.94%; CoaBC: 0.2611%; PfKRS1: 1.911%; TcHisRS: 3.955%; Pks13 thioesterase: -15.39%.
With Cc1nc[nH]c1-c1nccn1CCN1CCCC1=O the screen gave ClpP1P2: 16.31%; CoaBC: -1.699%; PfKRS1: -1.905%; TcHisRS: 9.901%; Pks13 thioesterase: -0.5943%.
With CC(=O)c1cccc(OCCCC(=O)NCC2CCCN2C)c1 (centres unmarked) the screen gave ClpP1P2: 7.688%; CoaBC: -5.851%; PfKRS1: 5.591%; TcHisRS: 1.901%; Pks13 thioesterase: -12.05%.
With CN(C(=O)CC1=CCCCC1)C1CCCN(CCc2ccccc2)C1 (centres unmarked) the screen gave ClpP1P2: -7.275%; CoaBC: 3.004%; PfKRS1: 1.324%; TcHisRS: 2.326%; Pks13 thioesterase: -11.76%.
With CC(C)n1ccnc1CN1C(=O)OC[C@@H]1c1ccccc1 the screen gave ClpP1P2: -1.114%; CoaBC: 5.433%; PfKRS1: 10.63%; TcHisRS: 8.427%; Pks13 thioesterase: -12.26%.

2 of the entries, repeated:

compound,ClpP1P2,CoaBC,PfKRS1,TcHisRS,Pks13 thioesterase
O=C(NC[C@H]1OC[C@@H]2CCN(Cc3ccco3)C[C@@H]21)c1ccsc1,0.002579%,5.376%,0.8575%,-2.479%,-17.09%
CC(C)COc1cncc(NCCc2nnc3ccccn23)n1,-6.985%,8.351%,2.558%,4.545%,-0.01605%